This is one part of the list.

Protein sequences, listed by entry. Tags and fused reporters are not part of them.
UniProt Q0JBA9, entry or part of it: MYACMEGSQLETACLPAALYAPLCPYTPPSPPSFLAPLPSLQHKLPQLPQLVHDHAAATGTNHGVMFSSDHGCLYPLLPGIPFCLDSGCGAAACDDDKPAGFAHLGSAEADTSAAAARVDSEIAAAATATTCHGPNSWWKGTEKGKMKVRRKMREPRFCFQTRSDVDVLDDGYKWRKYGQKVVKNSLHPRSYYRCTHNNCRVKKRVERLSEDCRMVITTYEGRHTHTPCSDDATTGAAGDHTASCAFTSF

The values that follow come from PMC7819943, “Rice protein-binding microarrays: a tool to detect cis-acting elements near promoter regions in rice”.

The target of the assay is OsWRKY34 (Oryza sativa, UniProt Q0JBA9 1-250). The assay is described as follows: protein-binding microarray (RPBM); PBS, 2% BSA, 51.3 ng/ul salmon testes DNA, 50 uM zinc acetate, 200 nM TF, 25 C, 1 h; high values mean tight binding. The following applies: protein: recombinant; tags: N-terminal polyhistidine and DsRed monomer fusion (pET32a); label: CyDye5-dUTP incorporated in the synthesized complementary strand; 3' TTTTT single-stranded linker to array surface; dsDNA, one strand shown. A digest of the protocol: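 Ni–NTA purification followed expression in E. coli BL21-CodonPlus of transcription factors fused N-terminally to a polyhistidine tag and DsRed. At 200 nM in PBS with 2% BSA, salmon testes DNA and 50 µM zinc acetate, the protein was incubated for 1 h at 25 °C with a custom Agilent array that had been primer-extended with Cy5-dUTP and blocked with 2% BSA. After washing, the array was read on an Axon 4000B scanner. The binding signal is per-feature fluorescence intensity in arbitrary units.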
As to “ACCACCGCCGCCGCCGTCCCAGACACCAACTCCACCGCATCGGAGTCACCTAGTGCAG”, the binding signal is 13400 fluorescence intensity (a.u.). In the case of “TCGATCGTCTTCCTTGTTGCGCGCGCGCGTTCTCTAATCGCGGAGTCACCTAGTGCAG”, the binding signal was 9590 fluorescence intensity (a.u.). The result for “CCAAGCTCACCCATGTTTCTCCCTACACATCTCTCTTCCACGGAGTCACCTAGTGCAG” reads 8350 fluorescence intensity (a.u.); that for “CGACGATGTTGTCCCCACTCCAGCCGCCGCCGTGCCTTTCCGGAGTCACCTAGTGCAG”, 9230 fluorescence intensity (a.u.). The result for “TACGCCCATGATGGTCTTACTAGTCAATTTTATTACTATTCGGAGTCACCTAGTGCAG” reads 10000 fluorescence intensity (a.u.). The result for “ATTTAACTTTAACTTCCTCGTTTTCCGTTAGCACACTTTTCGGAGTCACCTAGTGCAG” reads 10300 fluorescence intensity (a.u.); that for “ATCAGCCGTGGTAATGGAGTTATGTCAGCCGTACGATCTACGGAGTCACCTAGTGCAG”, 10100 fluorescence intensity (a.u.). As to “CTGTTTTTCTTATCTAGGAATATTTTTTTCCTGTTCAGATCGGAGTCACCTAGTGCAG”, the binding signal is 8230 fluorescence intensity (a.u.).

Consider “AGCTTCCAAGTCAAGATATGGTCTCCACGTATTTCTCTCTCGGAGTCACCTAGTGCAG”, for which the binding signal was 8290 fluorescence intensity (a.u.). For the sequence “TGGTTTGGTTTGCACTTAATGTTCGTCACAGTTAAAGTGGCGGAGTCACCTAGTGCAG”, the binding signal is 13600 fluorescence intensity (a.u.). The result for “GGTTTCGTTTCGATTTTTCTTTTCTGGGTCCTTCATTCTCCGGAGTCACCTAGTGCAG” reads 8480 fluorescence intensity (a.u.); that for “TTAGGGTTTGTGTTAGTTTGTATTAGTACATGGATAGTAACGGAGTCACCTAGTGCAG”, 8580 fluorescence intensity (a.u.); that for “AGTTGCACATGTCTACTTGTGATCTGTTATCTTGTCCATACGGAGTCACCTAGTGCAG”, 9660 fluorescence intensity (a.u.). The result for “CTTCGTCGCCATCCGATAAAGACTCCTCATCCAATAGCATCGGAGTCACCTAGTGCAG” reads 8340 fluorescence intensity (a.u.); that for “GCTTTCTATCAAAGCAGGGTTCTCTGCCTTTGTTTTCCAACGGAGTCACCTAGTGCAG”, 10500 fluorescence intensity (a.u.).

On to “CTCTCTCTCTCTCTCTCTCTCTCTCTCTGTTTTACTACAACGGAGTCACCTAGTGCAG”, for which the binding signal is 13800 fluorescence intensity (a.u.).

On to “ATTGATCAGCTGCTCCTCGCGAACTGTCAGCGGCTGGTAACGGAGTCACCTAGTGCAG”, for which the binding signal is 8820 fluorescence intensity (a.u.). The result for “TGTGGCGGGGAGGGAGGGAGGGAGAAGGGGCGGCGTGTTGCGGAGTCACCTAGTGCAG” reads 16600 fluorescence intensity (a.u.). For “ACACTGTTTGACCAGAAAATAGGAGTACTCAGCTTTCTTTCGGAGTCACCTAGTGCAG”, the binding signal is 8920 fluorescence intensity (a.u.).

“AACTGCTGACTACCTTCTTCACACTTGTTTTTACTCCCAACGGAGTCACCTAGTGCAG”: the binding signal was 9940 fluorescence intensity (a.u.). The result for “CATTCTCGCTCCGCCCAGCCACCGCCTCCATCTCGACCTCCGGAGTCACCTAGTGCAG” reads 9570 fluorescence intensity (a.u.); that for “ATCCCAGTTTCCGTTCTCTCTTCCTTTTCCGTTTACCACACGGAGTCACCTAGTGCAG”, 12000 fluorescence intensity (a.u.); that for “CATCGCATTATGAAATGTCTCGTTCGATCTATGTTGTTATCGGAGTCACCTAGTGCAG”, 9550 fluorescence intensity (a.u.). The result for “ACGTAACCCGCGATCTGACCGGTCTGTGACCGGTCACACACGGAGTCACCTAGTGCAG” reads 8250 fluorescence intensity (a.u.); that for “TTAATGCCTCCTCCTTCCATTTCCACCCGCTTCCTCTCCTCGGAGTCACCTAGTGCAG”, 8700 fluorescence intensity (a.u.); that for “ATTATTTCTTGATTTTTTGGTTAAGGTGGTTGTGTCTTATCGGAGTCACCTAGTGCAG”, 8160 fluorescence intensity (a.u.). As to “GGGATTTTTGGTATTTTTCACAAGCAAGTACTTCATCTTTCGGAGTCACCTAGTGCAG”, the binding signal is 8160 fluorescence intensity (a.u.).

For the sequence “CGCATCAAACCATATCTGCATCGACGTGCGGCGCACACCGCGGAGTCACCTAGTGCAG”, the binding signal is 8810 fluorescence intensity (a.u.). For “TTCGACCATGCTGCACATATATGTTCATGAACGAATGCTTCGGAGTCACCTAGTGCAG”, the binding signal was 8900 fluorescence intensity (a.u.). As for “TCCGACGCTTCTCCGCTCCGCTGTCAGTTTGAACTAAAAGCGGAGTCACCTAGTGCAG”, the binding signal was 10000 fluorescence intensity (a.u.). With “ATTCGATGCGACTCAATGTGTGTGTTTTGTGCGATCTATTCGGAGTCACCTAGTGCAG”, the binding signal is 8970 fluorescence intensity (a.u.). Turning to “AGAATCGATGTTTGGTTGCTAGTATGGGATTTCTGAATAACGGAGTCACCTAGTGCAG”, the binding signal was 8930 fluorescence intensity (a.u.).

For “AAAGCTACTCCACTCCATACCACTCACCGCCAACCCGTACCGGAGTCACCTAGTGCAG”, the binding signal was 9580 fluorescence intensity (a.u.). Turning to “TGGGCGGCAGGGGCTATTTCTGCAATTTTTTTGGTCGATACGGAGTCACCTAGTGCAG”, the binding signal was 9310 fluorescence intensity (a.u.). In the case of “TTTAATGTATGGTGCCGTTGACTTTTTTTATCAATATTTGCGGAGTCACCTAGTGCAG”, the binding signal is 41200 fluorescence intensity (a.u.). For the sequence “TAATTTTTTTTCGTCCACATTTAATGCTCCATGCATATGTCGGAGTCACCTAGTGCAG”, the binding signal was 8630 fluorescence intensity (a.u.).

Consider “TTCCATGAATATAGAAATTATTGCTGTTTTTTCCCGGTTGCGGAGTCACCTAGTGCAG”, for which the binding signal is 8340 fluorescence intensity (a.u.). The result for “TTTGTCAACTCCATCCTTATTTTTTGTTAGCACATTTTTCCGGAGTCACCTAGTGCAG” reads 10600 fluorescence intensity (a.u.); that for “ATTTGTACATATATTTTTTCCCCTTTCTCGTACATATCTCCGGAGTCACCTAGTGCAG”, 13400 fluorescence intensity (a.u.). The result for “AACTTTATTTTTGGCAACTTTTTCATATGAGTTTATTTAACGGAGTCACCTAGTGCAG” reads 11900 fluorescence intensity (a.u.); that for “CATATGACTCCCTCGATGGTTTTTAGTGTGGTTTTCGCTACGGAGTCACCTAGTGCAG”, 10900 fluorescence intensity (a.u.); that for “GACCTCGCGAACAGCCCACACGTACGTTACTGACGCCATACGGAGTCACCTAGTGCAG”, 8770 fluorescence intensity (a.u.).
